These are yes or no findings as the source states them, for the method shown. In cells and extracts the contact can be indirect. A result given as binding can be weak or reduced; the word gives no strength.
Biological target: SET (mouse (endogenous in hippocampal CA3)) (UniProt Q9EQU5)
Test: co-IP; protein extracts of hippocampal CA3 of wt-siC, htau-siC and htau-siANP mice (lentiviral ANP32A shRNA or scrambled control) incubated overnight at 4 °C with the precipitating antibodies, protein G-Sepharose beads 2 h at 4 °C, washed with cell lysis buffer, SDS-PAGE and blot

Amino acid sequences for entries named in this document (tags omitted). A change or cut given only in a name is not applied to a line headed by its entry.
UniProt Q9EQU5: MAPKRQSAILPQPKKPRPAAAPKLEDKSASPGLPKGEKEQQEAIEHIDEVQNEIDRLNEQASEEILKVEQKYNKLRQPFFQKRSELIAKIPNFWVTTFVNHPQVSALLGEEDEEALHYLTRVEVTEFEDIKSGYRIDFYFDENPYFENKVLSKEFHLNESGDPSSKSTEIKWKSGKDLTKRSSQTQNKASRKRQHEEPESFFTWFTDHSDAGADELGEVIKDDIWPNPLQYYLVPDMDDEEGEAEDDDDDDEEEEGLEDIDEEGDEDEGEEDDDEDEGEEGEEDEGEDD
UniProt O35381: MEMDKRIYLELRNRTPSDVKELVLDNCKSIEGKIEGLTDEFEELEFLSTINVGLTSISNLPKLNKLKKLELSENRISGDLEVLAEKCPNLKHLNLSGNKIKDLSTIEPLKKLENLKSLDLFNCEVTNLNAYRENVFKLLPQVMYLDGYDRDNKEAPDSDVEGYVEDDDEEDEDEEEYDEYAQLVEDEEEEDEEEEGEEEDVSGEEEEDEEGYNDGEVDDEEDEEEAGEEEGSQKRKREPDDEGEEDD

binding: binds
Substance: ANP32A (from UniProt O35381 1-247)

— article PMC5418850
